Results from patent US20050013818A1.
Results are given in words; binding and its absence hold for the method and conditions named. Some entries that bind do so weakly or less than the wild type.

Tests used:
[1] = biological target: T1, NF-κB1 p50 (mouse), P25799; assay: EMSA of nuclear extracts of RANKL-stimulated primary wt mammary epithelial cells; conditions: remark: other sources report otherwise
T1 chain: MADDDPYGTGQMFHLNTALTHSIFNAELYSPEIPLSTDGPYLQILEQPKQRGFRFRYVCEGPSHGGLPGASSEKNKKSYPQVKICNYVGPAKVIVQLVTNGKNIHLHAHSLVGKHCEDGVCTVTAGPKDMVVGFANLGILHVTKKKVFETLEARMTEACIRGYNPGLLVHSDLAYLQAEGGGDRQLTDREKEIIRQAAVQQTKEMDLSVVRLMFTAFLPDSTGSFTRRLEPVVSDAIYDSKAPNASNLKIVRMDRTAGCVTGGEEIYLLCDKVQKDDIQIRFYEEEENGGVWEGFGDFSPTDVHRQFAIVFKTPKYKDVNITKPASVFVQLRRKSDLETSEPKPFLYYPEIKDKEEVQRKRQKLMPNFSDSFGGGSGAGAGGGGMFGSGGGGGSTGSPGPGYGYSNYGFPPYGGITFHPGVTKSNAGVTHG

[2] = biological target: T1, NF-κB1 p50 (mouse), P25799; assay: gel mobility shift assay of mammary gland whole cell extracts; composition of the NF-κB complexes; conditions: remark: other sources report otherwise

binding [1]: binds
binding [2]: binds
B1: RelA (p65), Q04207 1-549 (protein, mouse, UniProt Q04207 1-549, looked up)
chain: MDDLFPLIFPSEPAQASGPYVEIIEQPKQRGMRFRYKCEGRSAGSIPGERSTDTTKTHPTIKINGYTGPGTVRISLVTKDPPHRPHPHELVGKDCRDGYYEADLCPDRSIHSFQNLGIQCVKKRDLEQAISQRIQTNNNPFHVPIEEQRGDYDLNAVRLCFQVTVRDPAGRPLLLTPVLSHPIFDNRAPNTAELKICRVNRNSGSCLGGDEIFLLCDKVQKEDIEVYFTGPGWEARGSFSQADVHRQVAIVFRTPPYADPSLQAPVRVSMQLRRPSDRELSEPMEFQYLPDTDDRHRIEEKRKRTYETFKSIMKKSPFNGPTEPRPPTRRIAVPTRNSTSVPKPAPQPYTFPASLSTINFDEFSPMLLPSGQISNQALALAPSSAPVLAQTMVPSSAMVPLAQPPAPAPVLTPGPPQSLSAPVPKSTQAGEGTLSEALLHLQFDADEDLGALLGNSTDPGVFTDLASVDNSEFQQLLNQGVSMSHSTAEPMLMEYPEAITRLVTGSQRPPDPAPTPLGTSGLPNGLSGDEDFSSIADMDFSALLSQISS
